Results are given in words; binding and its absence hold for the method and conditions named. In cells and extracts the contact can be indirect. Some entries that bind do so weakly or less than the wild type.
How the values were obtained:
CD53-mCitrine (human) = molecular target: T1, CD53-mCitrine (human) (UniProt P19397); assay: FRET or BRET
T1 sequence: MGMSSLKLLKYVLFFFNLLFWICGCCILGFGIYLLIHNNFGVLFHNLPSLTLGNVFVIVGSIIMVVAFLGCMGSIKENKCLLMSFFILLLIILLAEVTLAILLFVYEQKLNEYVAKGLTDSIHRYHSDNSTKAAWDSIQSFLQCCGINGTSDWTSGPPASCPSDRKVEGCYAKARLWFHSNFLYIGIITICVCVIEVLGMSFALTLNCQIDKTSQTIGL

By UniProt entry, the sequences of proteins in these tests, tags left out. Where a name states a change or a piece, a line headed by the entry shows the natural chain unless it says otherwise. Chains listed by the source or under a name are the forms on record and can include a tag or linker.
UniProt Q04759: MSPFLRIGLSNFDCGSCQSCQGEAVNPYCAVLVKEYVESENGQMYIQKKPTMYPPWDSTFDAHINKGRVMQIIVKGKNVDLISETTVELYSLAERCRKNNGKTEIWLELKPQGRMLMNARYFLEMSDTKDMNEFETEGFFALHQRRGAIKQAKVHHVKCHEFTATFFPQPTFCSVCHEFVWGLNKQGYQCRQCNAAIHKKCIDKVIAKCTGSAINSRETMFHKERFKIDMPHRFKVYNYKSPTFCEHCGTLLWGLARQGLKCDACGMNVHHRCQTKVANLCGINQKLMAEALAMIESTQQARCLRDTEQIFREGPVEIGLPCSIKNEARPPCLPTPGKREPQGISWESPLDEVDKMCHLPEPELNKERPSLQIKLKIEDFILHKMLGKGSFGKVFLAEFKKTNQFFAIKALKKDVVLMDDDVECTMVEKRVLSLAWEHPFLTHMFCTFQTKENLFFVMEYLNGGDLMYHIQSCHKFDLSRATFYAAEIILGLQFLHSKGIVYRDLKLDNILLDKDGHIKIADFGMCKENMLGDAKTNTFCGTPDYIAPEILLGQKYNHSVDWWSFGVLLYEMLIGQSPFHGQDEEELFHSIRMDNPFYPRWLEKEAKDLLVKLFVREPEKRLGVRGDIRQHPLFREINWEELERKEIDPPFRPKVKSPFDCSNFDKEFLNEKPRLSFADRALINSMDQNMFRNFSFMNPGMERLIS
CD45RO (P08575-4, form named): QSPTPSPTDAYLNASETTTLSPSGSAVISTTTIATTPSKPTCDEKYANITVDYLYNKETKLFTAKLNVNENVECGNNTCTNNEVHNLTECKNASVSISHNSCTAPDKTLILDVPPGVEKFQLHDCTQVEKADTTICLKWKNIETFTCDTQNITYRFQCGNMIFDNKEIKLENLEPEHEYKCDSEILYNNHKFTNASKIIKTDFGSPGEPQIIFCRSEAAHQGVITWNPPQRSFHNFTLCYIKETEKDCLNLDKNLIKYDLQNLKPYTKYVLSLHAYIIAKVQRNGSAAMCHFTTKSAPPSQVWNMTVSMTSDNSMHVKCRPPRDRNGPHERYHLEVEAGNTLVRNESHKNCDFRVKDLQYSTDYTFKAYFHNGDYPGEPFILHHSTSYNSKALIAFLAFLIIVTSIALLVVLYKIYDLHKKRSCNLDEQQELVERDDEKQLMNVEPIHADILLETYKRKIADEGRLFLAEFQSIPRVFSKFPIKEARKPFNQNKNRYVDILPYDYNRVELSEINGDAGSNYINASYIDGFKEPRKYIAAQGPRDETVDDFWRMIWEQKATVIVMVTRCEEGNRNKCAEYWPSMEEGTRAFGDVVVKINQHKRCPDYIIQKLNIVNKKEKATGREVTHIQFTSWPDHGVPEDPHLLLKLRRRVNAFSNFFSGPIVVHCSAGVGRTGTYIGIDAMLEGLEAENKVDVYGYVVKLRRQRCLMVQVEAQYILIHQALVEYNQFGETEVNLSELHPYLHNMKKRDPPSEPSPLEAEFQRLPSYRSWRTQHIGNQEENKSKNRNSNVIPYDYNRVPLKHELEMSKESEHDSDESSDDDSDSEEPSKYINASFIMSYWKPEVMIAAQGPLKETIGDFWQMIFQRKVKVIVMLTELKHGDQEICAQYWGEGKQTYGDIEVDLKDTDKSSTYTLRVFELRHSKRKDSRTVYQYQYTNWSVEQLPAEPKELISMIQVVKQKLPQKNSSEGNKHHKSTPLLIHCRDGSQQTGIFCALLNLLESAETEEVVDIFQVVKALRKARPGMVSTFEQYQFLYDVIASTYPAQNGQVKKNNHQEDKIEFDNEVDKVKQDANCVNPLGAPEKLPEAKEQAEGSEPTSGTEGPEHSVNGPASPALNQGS

[1] = molecular target: T2, tetraspanin CD53 (human (endogenous in Raji and CEM)) (UniProt P19397); assay: co-IP
T2 sequence: T1 sequence

| binding (CD53-mCitrine (human)) | binding [1] | Substance |
| --- | --- | --- |
| no binding |  | mCherry-PKCθ (from UniProt Q04759 1-706) |
|  | binds | CD45RO (from UniProt P08575-4 26-1145) |
